# Reference: PubChem BioAssay AID1159584 (Peter MacCallum Cancer Centre, 2016)
# Aim: 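Knock-downs that harm CDH1-null cells more than parental MCF10A cells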 (primary screen)
# Cell system: human MCF10A breast epithelial cells, parental and CDH1-null
# Reagents: siRNA against human genes
# Measurement: 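Cell viability by CellTiter-Glo ATP luminescence, each line scaled to the mean of mock wells across plates, then CDH1-null over parental ratio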
# Reading the numbers: CDH1-null / parental viability ratio: higher = CDH1-null cells survive relatively better than parental; CDH1-null viability vs mock: higher = more viable CDH1-null cells; parental viability vs mock: higher = more viable parental cells
# Here is one part, drawn at random, of about 18,000 reagents. Reagents against one gene are numbered here. Reagent sequences are not shown. Not given: the amount of reagent, the time to read-out.
gene symbol,reagent,CDH1-null / parental viability ratio,CDH1-null viability vs mock (fraction of mock),parental viability vs mock (fraction of mock)
KLF16,1,0.94,0.48,0.51
GLI3,1,0.83,0.57,0.69
HYAL1,1,0.85,0.57,0.67
GAST,1,0.95,0.84,0.88
CD4,1,0.92,0.73,0.79
TBC1D3F,1,1.21,0.92,0.76
TBC1D3F,2,1.21,0.8,0.66
DNAJC14,1,1.07,1.11,1.04
LRCH4,1,1.18,0.8,0.68
PRC1,1,0.91,0.63,0.69
CLSPN,1,1.24,0.68,0.55
MOB2,1,1.21,0.88,0.73
RP9,1,0.89,0.84,0.94
MT1M,1,1.06,0.72,0.68
CSTPP1,1,0.9,0.72,0.8
LOXL2,1,0.92,0.6,0.65
DGCR6,1,1.38,0.88,0.64

Records above whose gene name begins with T or t (2):
gene symbol,reagent,CDH1-null / parental viability ratio,CDH1-null viability vs mock (fraction of mock),parental viability vs mock (fraction of mock)
TBC1D3F,1,1.21,0.92,0.76
TBC1D3F,2,1.21,0.8,0.66

Further results:
gene symbol,reagent,CDH1-null / parental viability ratio,CDH1-null viability vs mock (fraction of mock),parental viability vs mock (fraction of mock)
NPIPB7,1,0.83,0.38,0.46
ASGR1,1,0.96,0.5,0.52
LARP7,1,1.23,1.16,0.94
ACKR3,1,0.8,0.66,0.82
NUDCD2,1,1.21,0.91,0.75
GNMT,1,1.16,1.11,0.96
CAPZA3,1,1.02,0.88,0.86
ADD1,1,0.95,0.84,0.88
DEFA6,1,1.2,0.98,0.82
SPATA33,1,1.05,0.59,0.56
IL1A,1,1.07,1.11,1.04
TMED9,1,1.15,1.1,0.96
UEVLD,1,1.36,0.68,0.5
RAMP3,1,1.03,0.67,0.65
LIPN,1,0.9,0.66,0.73
ZEB1,1,1,0.76,0.76
VCL,1,0.93,1,1.08
MYO1C,1,0.78,0.58,0.74
SIGLEC11,1,1.63,0.62,0.38
IMPG2,1,0.79,0.68,0.86
DYNLT2,1,1.12,1,0.89
MAB21L1,1,1.17,0.82,0.7
PROK2,1,1.04,0.56,0.54
RSPO4,1,0.92,0.44,0.48
TRIB3,1,1.21,0.92,0.76
KRTAP3-2,1,1.11,1.04,0.94
SLC27A2,1,0.96,0.81,0.84
GTF3C3,1,0.98,0.88,0.9
OR8B8,1,1.05,0.46,0.44
